Source: paper PMC10272187, “PPP2R1A regulates migration persistence through the NHSL1-containing WAVE Shell Complex” (Nature Communications, 2023)
Results are given in words; binding and its absence hold for the method and conditions named. Some entries that bind do so weakly or less than the wild type.

By UniProt entry, the sequences of proteins in these tests, tags left out. Residues count along the entry.
UniProt Q8IZP0, residues 1-158: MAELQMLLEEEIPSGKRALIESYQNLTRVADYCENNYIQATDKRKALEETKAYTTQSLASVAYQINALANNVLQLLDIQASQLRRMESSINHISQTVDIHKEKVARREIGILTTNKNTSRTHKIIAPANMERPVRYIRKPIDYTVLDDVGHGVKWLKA
UniProt Q92558, residues 1-230: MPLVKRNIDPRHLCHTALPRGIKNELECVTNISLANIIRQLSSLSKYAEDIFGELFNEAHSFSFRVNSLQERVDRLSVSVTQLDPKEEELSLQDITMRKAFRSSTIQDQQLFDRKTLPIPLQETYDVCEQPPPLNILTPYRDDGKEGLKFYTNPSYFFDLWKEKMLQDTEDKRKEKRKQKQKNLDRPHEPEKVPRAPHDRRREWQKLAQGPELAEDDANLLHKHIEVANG

Target: ABI1 (1-158) (UniProt Q8IZP0)
Experiment: SEC; Recombinant subunits expressed individually; CYFIP1-NCKAP1 dimer and BRK1-ABI1-NHSL1 (or WAVE1) trimer reconstituted; pentamers purified on SOURCE 15Q and Superdex 200 (24 ml column); both purified

binding: binds
Substance: WAVE1 (1-230) (from UniProt Q92558 1-230) (domain or fragment)
